No constants are given. Whether binding was seen depends on the method and setting. Some binding calls cover weakened binding; strength is not graded here.

Amino acid sequences for entries named in this document (tags omitted).
UniProt Q9Y5Y6: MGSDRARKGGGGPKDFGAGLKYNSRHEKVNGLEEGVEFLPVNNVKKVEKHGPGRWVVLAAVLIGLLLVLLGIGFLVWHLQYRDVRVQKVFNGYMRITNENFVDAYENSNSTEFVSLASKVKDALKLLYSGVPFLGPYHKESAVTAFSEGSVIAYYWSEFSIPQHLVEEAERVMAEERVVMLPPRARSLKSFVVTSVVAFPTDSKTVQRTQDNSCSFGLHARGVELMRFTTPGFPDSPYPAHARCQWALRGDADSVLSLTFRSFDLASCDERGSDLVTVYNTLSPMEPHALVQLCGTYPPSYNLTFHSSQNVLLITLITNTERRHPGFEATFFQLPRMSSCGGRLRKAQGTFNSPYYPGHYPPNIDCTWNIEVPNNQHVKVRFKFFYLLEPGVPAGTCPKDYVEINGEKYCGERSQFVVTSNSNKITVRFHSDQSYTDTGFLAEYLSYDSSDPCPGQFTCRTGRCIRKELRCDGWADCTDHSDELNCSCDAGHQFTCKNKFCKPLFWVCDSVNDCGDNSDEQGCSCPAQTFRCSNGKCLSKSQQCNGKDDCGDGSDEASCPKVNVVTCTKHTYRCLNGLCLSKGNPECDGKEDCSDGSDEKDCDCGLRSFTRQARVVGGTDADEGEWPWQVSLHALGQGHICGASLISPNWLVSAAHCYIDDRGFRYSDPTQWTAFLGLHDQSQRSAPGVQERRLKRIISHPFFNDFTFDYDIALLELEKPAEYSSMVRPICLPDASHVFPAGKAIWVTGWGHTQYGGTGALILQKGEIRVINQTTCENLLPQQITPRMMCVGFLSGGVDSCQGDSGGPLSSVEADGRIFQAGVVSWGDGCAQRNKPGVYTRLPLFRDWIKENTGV

This experiment deals with full-length MT-SP1 on human cancer cells (human) (UniProt Q9Y5Y6). Nature of the experiment: fluorescence microscopy of HT29 cells pre-incubated with recombinant HAI-1.

B1: recombinant human HAI-1 (protein, UniProt O43278-2 36-449, looked up)
chain: GPPPAPPGLPAGADCLNSFTAGVPGFVLDTNASVSNGATFLESPTVRRGWDCVRACCTTQNCNLALVELQPDRGEDAIAACFLINCLYEQNFVCKFAPREGFINYLTREVYRSYRQLRTQGFGGSGIPKAWAGIDLKVQPQEPLVLKDVENTDWRLLRGDTDVRVERKDPNQVELWGLKEGTYLFQLTVTSSDHPEDTANVTVTVLSTKQTEDYCLASNKVGRCRGSFPRWYYDPTEQICKSFVYGGCLGNKNNYLREEECILACRGVQGPSMERRHPVCSGTCQPTQFRCSNGCCIDSFLECDDTPNCPDASDEAACEKYTSGFDELQRIHFPSDKGHCVDLPDTGLCKESIPRWYYNPFSEHCARFTYGGCYGNKNNFEEEQQCLESCRGISKKDVFGLRREIPIPSTGSVE
Take B1: the binding entry was “binds”.

Values taken from patent publication US20120141373A1 (University of California, published 2012).
